Amino acid sequences for entries named in this document (tags omitted).
UniProt Q86WV6: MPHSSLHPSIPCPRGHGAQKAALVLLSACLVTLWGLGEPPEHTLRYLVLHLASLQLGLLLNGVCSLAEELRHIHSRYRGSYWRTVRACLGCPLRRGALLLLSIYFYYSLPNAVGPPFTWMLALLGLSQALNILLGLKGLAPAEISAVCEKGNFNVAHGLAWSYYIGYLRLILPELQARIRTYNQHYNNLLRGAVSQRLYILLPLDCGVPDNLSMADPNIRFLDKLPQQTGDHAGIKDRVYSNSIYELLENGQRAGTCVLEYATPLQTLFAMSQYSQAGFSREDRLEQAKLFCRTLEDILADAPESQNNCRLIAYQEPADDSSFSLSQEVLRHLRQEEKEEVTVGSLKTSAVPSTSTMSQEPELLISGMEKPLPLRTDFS
UniProt P53621: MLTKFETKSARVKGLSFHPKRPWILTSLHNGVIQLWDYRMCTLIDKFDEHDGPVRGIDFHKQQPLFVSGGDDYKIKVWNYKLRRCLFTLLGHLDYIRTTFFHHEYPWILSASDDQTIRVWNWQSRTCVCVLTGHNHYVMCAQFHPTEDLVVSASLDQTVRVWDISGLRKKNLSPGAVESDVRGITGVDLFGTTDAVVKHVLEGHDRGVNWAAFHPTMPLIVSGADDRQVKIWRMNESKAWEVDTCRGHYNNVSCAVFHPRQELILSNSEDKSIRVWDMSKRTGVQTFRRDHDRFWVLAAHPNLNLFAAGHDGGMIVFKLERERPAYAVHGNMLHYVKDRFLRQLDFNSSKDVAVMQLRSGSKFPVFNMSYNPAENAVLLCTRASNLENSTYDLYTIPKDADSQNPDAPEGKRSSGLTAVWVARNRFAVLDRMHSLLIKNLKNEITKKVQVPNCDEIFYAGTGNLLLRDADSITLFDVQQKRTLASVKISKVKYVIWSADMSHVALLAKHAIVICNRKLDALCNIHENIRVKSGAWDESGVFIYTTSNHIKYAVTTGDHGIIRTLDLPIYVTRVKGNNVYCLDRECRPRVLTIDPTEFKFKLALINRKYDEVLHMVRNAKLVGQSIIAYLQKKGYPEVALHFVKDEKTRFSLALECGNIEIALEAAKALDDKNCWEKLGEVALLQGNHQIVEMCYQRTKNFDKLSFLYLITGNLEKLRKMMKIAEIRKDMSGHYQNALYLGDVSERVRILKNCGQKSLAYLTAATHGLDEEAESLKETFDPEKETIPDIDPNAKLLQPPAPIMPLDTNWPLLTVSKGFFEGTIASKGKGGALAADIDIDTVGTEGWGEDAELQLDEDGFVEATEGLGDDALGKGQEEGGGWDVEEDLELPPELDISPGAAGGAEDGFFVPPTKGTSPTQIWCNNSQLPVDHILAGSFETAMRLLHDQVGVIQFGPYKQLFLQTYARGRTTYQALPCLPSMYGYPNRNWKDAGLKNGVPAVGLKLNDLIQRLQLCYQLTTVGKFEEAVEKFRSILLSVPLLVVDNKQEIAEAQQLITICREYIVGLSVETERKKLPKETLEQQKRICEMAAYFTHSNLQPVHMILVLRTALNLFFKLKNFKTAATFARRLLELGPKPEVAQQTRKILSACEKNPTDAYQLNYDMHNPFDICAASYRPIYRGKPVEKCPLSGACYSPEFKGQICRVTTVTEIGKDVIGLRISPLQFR
UniProt O15260: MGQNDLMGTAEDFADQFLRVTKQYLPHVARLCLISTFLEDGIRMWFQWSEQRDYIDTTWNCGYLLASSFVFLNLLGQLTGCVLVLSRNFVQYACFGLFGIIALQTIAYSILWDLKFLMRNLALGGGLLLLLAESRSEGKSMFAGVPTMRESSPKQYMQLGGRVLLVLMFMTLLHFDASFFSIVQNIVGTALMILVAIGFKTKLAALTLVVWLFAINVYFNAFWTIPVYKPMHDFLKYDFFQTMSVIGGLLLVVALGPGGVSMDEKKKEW

According to paper PMC9051092:

Target: mCitrine (mCit)-tagged human STING (human) (UniProt Q86WV6)
Assay: affinity purification with mass spectrometry; mCit-STING transiently overexpressed in HEK293T (48 hrs), lysis in 1% NP-40 buffer (20 mM Tris-HCl pH 7.4, 150 mM NaCl), IP with anti-GFP antibody cross-linked to Protein A Dynabeads, 2 hrs at 4 °C, four washes; label-free quantification against empty vector control, n = 3 independent IPs

Row | binding | Substance
1 | binds | COPA (coatomer complex I subunit alpha) (from UniProt P53621 1-1224)
2 | binds | SURF4 (from UniProt O15260 1-269)

Results are given in words; binding and its absence hold for the method and conditions named. In cells and extracts the contact can be indirect. Here binding means that the protein was enriched with, or labelled near, the bait; the list need not be complete.
